According to patent US9592186B2, “Topical compositions and methods for skin lightening” (Avon Products, Inc., priority 2014, dated 2017):
Where a name gives a salt, the structure may show the parent alone.

Test system: Human epidermal melanocytes from dark-pigmented skin
Test: Melanin absorbance (pigmentation) in cultured human epidermal melanocytes after 8 days of incubation
Type: cell-based
Protocol: The Compound of Formula (II) was examined for its ability to reduce pigmentation in vitro in human melanocytes. Human epidermal melanocytes from dark-pigmented skin were seeded in 6-well dishes and grown using commercially available Medium 254, a sterile, liquid medium prepared with 200 μM calcium chloride for the culture of human epidermal melanocytes, supplemented with 1% Penicillin/Streptomycin and 1% Human Melanocyte Growth Supplement. Corresponding controls were maintained without histamine, Diphenylhydramine HCl and Compound II. Four replicates were tested for each combination. After 8 days of incubation, melanin was collected and processed by washing the wells with IX phosphate-buffered saline (PBS), followed by addition of 200 μL of 2M NaOH to three of the four replicates, which are then scraped, pooled and boiled at 80° C. for an hour. Melanin absorption was then measured at 405 nm using a spectrophotometer.
Results are summarized in Table 1 below as percent change of melanin absorbance relative to vehicle control. A larger (positive or negative) percent change indicates a larger increase or reduction in melanin.

Compound: CN(C)CCOC(c1ccccc1)c1ccccc1 [Diphenhydramine HCl]
- effect on pigmentation (in words) (5 μM, summary of Table 1): reduces pigmentation
- % Pigmentation (percent change of melanin absorbance relative to vehicle control) (concentration 5 μM, 8 days incubation, absorption at 405 nm): −38.75%
